# Data from patent US8647887B2, “Measuring G protein coupled receptor activation” (Commonwealth Scientific and Industrial Research Organisation, priority 2009, dated 2014).
# Test system: ODR-10 receptor (OGOR)
# Test: cell-free BRET^2 assay with dual-labelled ODR-10 (OGOR) in yeast membrane preparations
# Type: biochemical, C. elegans
# Conditions: diacetyl 1 μM
# Method: Cells were harvested by centrifugation at 1500×g (4° C.) for 5 minutes, washed in water and resuspended in 4 mL of Dulbecco's phosphate buffered saline (D-PBS) or 1×PBS, containing 1000 mg/L glucose, 36 mg/L sodium pyruvate, calcium and magnesium (Invitrogen). The cells were lysed by French press (˜18000 psi) and the soluble protein fractions were isolated by centrifugation at 9300×g (4° C.) for 15 minutes. Following this the soluble protein fraction was transferred to 13.15 mL polycarbonate thick wall centrifuge tubes and ultracentrifuged at 40,000 rpm (Beckman Coulter L-80 ultra-centrifuge) for 1 hour at 4° C. […]
# Simultaneous dual emission RET measurements were carried out with a POLARstar OPTIMA microplate reader (BMG LabTech). […]
# To assess the relative concentrations of BRET^2 tagged receptor samples the fluorescence intensity of the sample was determined from spectral scans and the sample amount normalized by the OGOR fluorescence intensity. To convert GFP^2 intensity into concentration purified GFP^2 protein was assayed at different concentrations to produce a calibration graph relating concentration to fluorescence intensity. […] Rearranging the line of best fit equation (y=271x+233.31) results in conversion of fluorescence intensity to concentration. […]
# A sigmoidal dose response curve was fitted, and EC50 calculated, by non-linear regression analysis using GraphPad Prism for Windows XP.
smiles,measurement,setting,value
CC(=O)C(C)=O [diacetyl],donor-acceptor distance upon addition of ligand,6.8 nm before addition,7.6 nm
same,measured transfer efficiency for OGOR upon addition of ligand,64.3% before addition,47%
